Tested on: A. baumannii biofilms
Assay: EBEC, high number biofilms on PEEK membranes, 10^9 to 10^2 CFU/PEEK membrane in 24 hours
Type: cell-based, Acinetobacter baumannii
Details: against A. baumannii
Protocol: In addition to determining the MIC and the MBEC of polyamine compounds against planktonic bacteria and low number biofilms, our group wanted to determine the efficacy of polyamine compounds against high number biofilms. To do so, biofilms were grown on the surface of polyetheretherketone (PEEK) membranes using a membrane biofilm reactor. This reactor is similar to the CDC biofilm reactor, but rather than growing biofilms on coupon surfaces, the reactor was modified to hold PEEK membranes. In short, to grow biofilms within this system, 500 mL of brain heart infusion (BHI) broth were inoculated with 1 mL of a 0.5 McFarland. The reactor was placed on a hot plate set at 34° C. and the bacteria were grown under batch conditions for 24 hours. Following this protocol, biofilms typically grow to 10^9 CFU/PEEK membrane. […] A solution of 10% BHI was then flowed through the reactor at a rate of 6.94 mL/min for an additional 24 hours. PEEK membranes were then removed and placed into 2 mL of CAMHB that contained a desired concentration of polyamine compound or antibiotic. […]
In addition to determining the MIC and the MBEC of compounds against planktonic bacteria and low number biofilms, the efficacy of the compounds of the invention against high number biofilms is determined. […]

Molecule | EBEC greater than the MIC (ratio)
NCCCNCCCNCc1cc(CNCCCNCCCN)cc(-c2ccccc2)c1 [CZ-58, N^1,N^1′-([1,1′-biphenyl]-3,5-diylbis(methylene))bis(N^3-(3-ammoniopropyl)propane-1,3-diaminium) chloride] | ~13 ×
polymyxin B [reference compound] | 1,000 ×
